Test results: patent US20060141569A1, “Compositions and methods for the assay of G-protein coupled receptors and their ligands” (priority 2004, published 2006)
Results are given in words; binding and its absence hold for the method and conditions named. Some entries that bind do so weakly or less than the wild type.

By UniProt entry, the sequences of proteins in these tests, tags left out. Where a name states a change or a piece, a line headed by the entry shows the natural chain unless it says otherwise. Chains listed by the source or under a name are the forms on record and can include a tag or linker. Residues count along the entry.
UniProt P25025: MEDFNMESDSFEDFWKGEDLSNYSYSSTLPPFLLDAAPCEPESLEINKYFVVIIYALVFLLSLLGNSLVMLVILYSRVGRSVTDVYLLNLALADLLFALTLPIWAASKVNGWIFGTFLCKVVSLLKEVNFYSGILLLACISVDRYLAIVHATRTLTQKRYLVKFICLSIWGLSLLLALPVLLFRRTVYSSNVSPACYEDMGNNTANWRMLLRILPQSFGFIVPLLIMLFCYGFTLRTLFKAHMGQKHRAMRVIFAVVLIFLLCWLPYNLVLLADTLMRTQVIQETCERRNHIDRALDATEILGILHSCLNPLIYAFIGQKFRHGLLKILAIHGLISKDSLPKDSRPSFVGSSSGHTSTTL
CXCR2 encoded by the expression vector pHS, in CHEM-1 cells (P25025, form named): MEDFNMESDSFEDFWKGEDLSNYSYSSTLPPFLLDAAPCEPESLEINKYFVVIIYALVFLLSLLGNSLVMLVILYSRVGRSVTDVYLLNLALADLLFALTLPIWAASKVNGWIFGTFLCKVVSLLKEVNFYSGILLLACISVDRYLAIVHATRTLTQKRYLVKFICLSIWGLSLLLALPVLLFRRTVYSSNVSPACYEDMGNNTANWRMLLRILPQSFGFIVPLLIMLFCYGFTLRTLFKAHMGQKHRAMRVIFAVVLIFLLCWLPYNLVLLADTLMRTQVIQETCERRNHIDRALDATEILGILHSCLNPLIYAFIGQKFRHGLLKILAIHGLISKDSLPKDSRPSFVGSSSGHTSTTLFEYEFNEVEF
UniProt P09341, residues 35-107: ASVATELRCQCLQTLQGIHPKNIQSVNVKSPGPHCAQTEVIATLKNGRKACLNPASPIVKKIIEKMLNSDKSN

Columns and labels:
[1] = target: CXCR2 encoded by the mammalian expression vector pcDNA3, in CHO cells (UniProt P25025); test: competition against 125I-Groα, CHO membranes
[2] = target: CXCR2 encoded by the expression vector pHS, in CHEM-1 cells (UniProt P25025); test: competition against 125I-Groα, CHEM-1 membranes
[3] = target: CXCR2 encoded by the expression vector pHS, in CHEM-1 cells (UniProt P25025); test: competition against 125I-Groα, one site curve, FIG. 8B (CHEM-1/pHS membranes)

Measured: binding

cold ligand Groα (from UniProt P09341 35-107)
binds: all assays above
